Assay results as given in US20220290165A1.

Target: Trichoderma reesei tsp1 (Trichoderma reesei)
Assay: SBTI-agarose affinity purification from M44 culture supernatant; LC-MS/MS of gel sections

B1: soybean trypsin inhibitor (SBTI) (protein, UniProt P01070 25-205, looked up)
chain: DFVLDNEGNPLENGGTYYILSDITAFGGIRAAPTGNERCPLTVVQSRNELDKGIGTIISSPYRIRFIAEGHPLSLKFDSFAVIMLCVGIPTEWSVVEDLPEGPAVKIGENKDAMDGWFRLERVSDDEFNNYKLVFCPQQAEDDKCGDIGISIDHDDGTRRLVVSKNKPLVVQFQKLDKESL
modifications: coupled to agarose in the affinity purification
- binding: binds

No constants are given. Whether binding was seen depends on the method and setting. Binding seen in cells or lysates may run through a third protein. A result given as binding can be weak or reduced; the word gives no strength.
